Laboratory results as given in patent US20110009473A1 (CEDARS SINAI MEDICAL CENTER, published 2011).
Changes are numbered by the printed parent chain. Numbers in names are those of the source. These are yes or no findings as the source states them, for the method shown. In cells and extracts the contact can be indirect. Some entries that bind do so weakly or less than the wild type. For part of these data: Tags and fused reporters may be left off the sequences shown. Blank lines part the entries; values can stand above or below the binder they belong to.

Columns and labels:
[1] = molecular target: T1, His-tagged PTTG1 (human) (UniProt O95997); test: His-tag pull-down, His PTTG1 as bait, Aurora Kinase A as prey
T1 sequence: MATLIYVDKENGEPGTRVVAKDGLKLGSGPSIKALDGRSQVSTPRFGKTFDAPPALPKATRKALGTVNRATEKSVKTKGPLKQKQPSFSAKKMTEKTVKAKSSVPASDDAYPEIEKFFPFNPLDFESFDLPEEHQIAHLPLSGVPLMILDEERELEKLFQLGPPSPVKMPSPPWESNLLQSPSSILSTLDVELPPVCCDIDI

[2] = molecular target: T2, Aurora Kinase A (human) (UniProt O14965); test: His-tag pull-down
T2 sequence (biotin-lysine labeled during synthesis when used as prey in the pull-down, looked up): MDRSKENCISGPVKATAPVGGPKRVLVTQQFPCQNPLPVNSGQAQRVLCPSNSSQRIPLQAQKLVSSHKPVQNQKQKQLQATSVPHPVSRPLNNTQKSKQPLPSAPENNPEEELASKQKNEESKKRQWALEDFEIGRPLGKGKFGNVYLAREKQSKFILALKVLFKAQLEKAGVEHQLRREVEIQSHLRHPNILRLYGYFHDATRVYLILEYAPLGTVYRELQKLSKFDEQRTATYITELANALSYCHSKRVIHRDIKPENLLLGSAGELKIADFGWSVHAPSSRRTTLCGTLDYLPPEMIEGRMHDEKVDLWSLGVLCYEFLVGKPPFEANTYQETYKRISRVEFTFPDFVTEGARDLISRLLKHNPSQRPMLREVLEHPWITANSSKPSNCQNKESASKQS

[3] = molecular target: T2, Aurora Kinase A (human); test: co-immunoprecipitation from transfected HCT116 PTTG1-/- cells

- binding [1]: binds
B1: Aurora Kinase A (enzyme, human, UniProt O14965 1-403, looked up)
chain: T2 sequence (biotin-lysine labeled during synthesis when used as prey in the pull-down, looked up)
modifications: biotin-lysine labeled during synthesis when used as prey in the pull-down

- binding [2]: binds
B2: His-tagged PTTG1 (protein, not shown: small tags and cut ends)
chain: T1 sequence

- binding [3]: binds
B3: PTTG1 S181A mutation (M9) (protein)
chain: T1 sequence with S181A
